# Measured values as given in the supplement of paper PMC8728848.
# The list shows a part of the results.
# B1: DCIR1 (Mus musculus), Q9QZ15 (protein)
# chain: MASEITYAEVKFKNESNSLHTYSESPAAPREKPIRDLRKPGSPSLLLTSLMLLLLLLAITFLVAFIIYFQKYSQLLEEKKAAKNIMHNELNCTKSVSPMEDKVWSCCPKDWRLFGSHCYLVPTVSSSASWNKSEENCSRMGAHLVVIQSQEEQDFITGILDTHAAYFIGLWDTGHRQWQWVDQTPYEESITFWHNGEPSSGNEKCATIIYRWKTGWGWNDISCSLKQKSVCQMKKINL
# How the values were obtained:
# Assay in all cases: glycan array binding signal (z-score within array); higher = stronger binding
# Details in all cases: glycan notation: IUPAC condensed, linker removed
# [1] = biological target: Gal(b1-4)GlcNAc(b1-3)Gal(b1-4)GlcNAc(b1-3)[Gal(b1-4)GlcNAc(b1-3)Gal(b1-4)GlcNAc(b1-6)]GalNAc
# Method in brief: (§1)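 Arrays were curated from the Consortium for Functional Glycomics database, 3228 in total, and kept only where the protein sequence was available. Binding is expressed as a within-array Z-score. This score was averaged across arrays of the same protein sequence at different concentrations or buffers and across linkers, and negative values can be read as non-binding.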
# [2] = biological target: Gal(b1-4)GlcNAc(b1-3)Gal(b1-4)GlcNAc(b1-6)[Gal(b1-3)]GalNAc
# Method in brief: as §1
# [3] = biological target: Gal(b1-4)GlcNAc(b1-3)Gal(b1-4)[Fuc(a1-3)]GlcNAc(b1-3)Gal(b1-4)[Fuc(a1-3)]GlcNAc
# Method in brief: as §1
# [4] = biological target: Gal(b1-4)GlcNAc(b1-3)GalNAc
# Method in brief: as §1
# [5] = biological target: Gal(b1-4)GlcNAc(b1-3)[Fuc(a1-3)GlcNAc(b1-6)]Gal(b1-4)Glc
# Method in brief: as §1
# [6] = biological target: Gal(b1-4)GlcNAc(b1-3)[Gal(b1-4)GlcNAc(b1-6)]Gal(b1-4)GlcNAc
# Method in brief: as §1
# [7] = biological target: Gal(b1-4)GlcNAc(b1-3)[GlcNAc(b1-6)]Gal(b1-4)GlcNAc
# Method in brief: as §1
# [8] = biological target: Gal(b1-4)GlcNAc(b1-6)Gal(b1-4)GlcNAc
# Method in brief: as §1
# [9] = biological target: Gal(b1-4)GlcNAc(b1-6)GalNAc
# Method in brief: as §1
# [10] = biological target: Gal(b1-4)GlcNAc(b1-6)[Gal(b1-3)]GalNAc
# Method in brief: as §1
# [11] = biological target: Gal(b1-4)GlcNAc(b1-6)[Gal(b1-4)GlcNAc(b1-3)]GalNAc
# Method in brief: as §1
# Gal(b1-4)GlcNAc6P = biological target: Gal(b1-4)GlcNAc6P
# Method in brief: as §1
# Gal(b1-6)Gal = biological target: Gal(b1-6)Gal
# Method in brief: as §1
# Gal3S(b1-3)GalNAc = biological target: Gal3S(b1-3)GalNAc
# Method in brief: as §1
# Gal3S(b1-3)GlcNAc = biological target: Gal3S(b1-3)GlcNAc
# Method in brief: as §1
# [12] = biological target: Gal3S(b1-3)[Fuc(a1-4)]GlcNAc
# Method in brief: as §1
# Gal3S(b1-4)Glc = biological target: Gal3S(b1-4)Glc
# Method in brief: as §1
# Gal3S(b1-4)Glc6S = biological target: Gal3S(b1-4)Glc6S
# Method in brief: as §1
# Gal3S(b1-4)GlcNAc = biological target: Gal3S(b1-4)GlcNAc
# Method in brief: as §1
# [13] = biological target: Gal3S(b1-4)[Fuc(a1-3)]Glc6S
# Method in brief: as §1
# [14] = biological target: Gal3S(b1-4)[Fuc(a1-3)]GlcNAc
# Method in brief: as §1
# [15] = biological target: Gal3S(b1-4)[Fuc(a1-3)]GlcNAc6S
# Method in brief: as §1
# Gal3S4S(b1-4)GlcNAc = biological target: Gal3S4S(b1-4)GlcNAc
# Method in brief: as §1
# Gal3S6S(b1-4)GlcNAc = biological target: Gal3S6S(b1-4)GlcNAc
# Method in brief: as §1
# Gal3S6S(b1-4)GlcNAc6S = biological target: Gal3S6S(b1-4)GlcNAc6S
# Method in brief: as §1
# Gal4S(b1-4)GlcNAc = biological target: Gal4S(b1-4)GlcNAc
# Method in brief: as §1
# Gal4S6S(b1-4)GlcNAc = biological target: Gal4S6S(b1-4)GlcNAc
# Method in brief: as §1
# Gal6P(b1-4)GlcNAc = biological target: Gal6P(b1-4)GlcNAc
# Method in brief: as §1
# Gal6S(b1-3)GlcNAc = biological target: Gal6S(b1-3)GlcNAc
# Method in brief: as §1
# Gal6S(b1-3)GlcNAc6S = biological target: Gal6S(b1-3)GlcNAc6S
# Method in brief: as §1
# Gal6S(b1-4)Glc = biological target: Gal6S(b1-4)Glc
# Method in brief: as §1
# Gal6S(b1-4)Glc6S = biological target: Gal6S(b1-4)Glc6S
# Method in brief: as §1
# Gal6S(b1-4)GlcNAc = biological target: Gal6S(b1-4)GlcNAc
# Method in brief: as §1
# Gal6S(b1-4)GlcNAc6S = biological target: Gal6S(b1-4)GlcNAc6S
# Method in brief: as §1
# GalNAc(a1-3)Gal = biological target: GalNAc(a1-3)Gal
# Method in brief: as §1
# GalNAc(a1-3)GalNAc = biological target: GalNAc(a1-3)GalNAc
# Method in brief: as §1
# [16] = biological target: GalNAc(a1-3)GalNAc(b1-3)Gal(a1-4)Gal(b1-4)Glc
# Method in brief: as §1
# [17] = biological target: GalNAc(a1-3)GalNAc(b1-3)Gal(a1-4)Gal(b1-4)GlcNAc
# Method in brief: as §1
# GalNAc(b1-3)Gal = biological target: GalNAc(b1-3)Gal
# Method in brief: as §1
# [18] = biological target: GalNAc(b1-3)Gal(a1-4)Gal(b1-4)GlcNAc
# Method in brief: as §1
# [19] = biological target: GalNAc(b1-3)Gal(a1-4)Gal(b1-4)GlcNAc(b1-3)Gal(b1-4)Glc
# Method in brief: as §1
# [20] = biological target: GalNAc(b1-3)Gal(a1-6)Gal(b1-4)Glc
# Method in brief: as §1
# GalNAc(b1-3)GalNAc = biological target: GalNAc(b1-3)GalNAc
# Method in brief: as §1
# GalNAc(b1-3)GlcNAc = biological target: GalNAc(b1-3)GlcNAc
# Method in brief: as §1
# GalNAc(b1-4)Gal(b1-4)Glc = biological target: GalNAc(b1-4)Gal(b1-4)Glc
# Method in brief: as §1
binder,measurement,setting,value
B1,glycan array binding signal (z-score),[1],0.557
same,glycan array binding signal (z-score),[2],0.91
same,glycan array binding signal (z-score),[3],1.05
same,glycan array binding signal (z-score),[4],-0.444
same,glycan array binding signal (z-score),[5],-0.78
same,glycan array binding signal (z-score),[6],-0.693
same,glycan array binding signal (z-score),[7],-0.372
same,glycan array binding signal (z-score),[8],-0.872
same,glycan array binding signal (z-score),[9],1.01
same,glycan array binding signal (z-score),[10],-0.07
same,glycan array binding signal (z-score),[11],0.977
same,glycan array binding signal (z-score),Gal(b1-4)GlcNAc6P,0.565
same,glycan array binding signal (z-score),Gal(b1-6)Gal,-0.786
same,glycan array binding signal (z-score),Gal3S(b1-3)GalNAc,0.904
same,glycan array binding signal (z-score),Gal3S(b1-3)GlcNAc,0.864
same,glycan array binding signal (z-score),[12],-0.369
same,glycan array binding signal (z-score),Gal3S(b1-4)Glc,1.19
same,glycan array binding signal (z-score),Gal3S(b1-4)Glc6S,1.04
same,glycan array binding signal (z-score),Gal3S(b1-4)GlcNAc,-0.589
same,glycan array binding signal (z-score),[13],0.117
same,glycan array binding signal (z-score),[14],-0.699
same,glycan array binding signal (z-score),[15],0.98
same,glycan array binding signal (z-score),Gal3S4S(b1-4)GlcNAc,-0.376
same,glycan array binding signal (z-score),Gal3S6S(b1-4)GlcNAc,0.218
same,glycan array binding signal (z-score),Gal3S6S(b1-4)GlcNAc6S,0.649
same,glycan array binding signal (z-score),Gal4S(b1-4)GlcNAc,-0.286
same,glycan array binding signal (z-score),Gal4S6S(b1-4)GlcNAc,0.062
same,glycan array binding signal (z-score),Gal6P(b1-4)GlcNAc,-0.489
same,glycan array binding signal (z-score),Gal6S(b1-3)GlcNAc,-0.787
same,glycan array binding signal (z-score),Gal6S(b1-3)GlcNAc6S,0.954
same,glycan array binding signal (z-score),Gal6S(b1-4)Glc,-0.115
same,glycan array binding signal (z-score),Gal6S(b1-4)Glc6S,0.927
same,glycan array binding signal (z-score),Gal6S(b1-4)GlcNAc,-0.003
same,glycan array binding signal (z-score),Gal6S(b1-4)GlcNAc6S,-0.128
same,glycan array binding signal (z-score),GalNAc(a1-3)Gal,0.51
same,glycan array binding signal (z-score),GalNAc(a1-3)GalNAc,-0.78
same,glycan array binding signal (z-score),[16],-0.298
same,glycan array binding signal (z-score),[17],2.31
same,glycan array binding signal (z-score),GalNAc(b1-3)Gal,0.474
same,glycan array binding signal (z-score),[18],0.261
same,glycan array binding signal (z-score),[19],0.98
same,glycan array binding signal (z-score),[20],-0.546
same,glycan array binding signal (z-score),GalNAc(b1-3)GalNAc,-0.661
same,glycan array binding signal (z-score),GalNAc(b1-3)GlcNAc,-0.653
same,glycan array binding signal (z-score),GalNAc(b1-4)Gal(b1-4)Glc,1.34

# Part of the list above, reformatted:
binder	measurement	setting	value
B1	glycan array binding signal (z-score)	Gal(b1-6)Gal	-0.786
same	glycan array binding signal (z-score)	Gal3S(b1-3)GalNAc	0.904
